The text below walks through data of patent publication US5733730, “Telomere repeat binding factor and diagnostic and therapeutic use thereof” (The Rockefeller University).

Amino acid sequences for entries named in this document (tags omitted). A change or cut given only in a name is not applied to a line headed by its entry.
UniProt P70371: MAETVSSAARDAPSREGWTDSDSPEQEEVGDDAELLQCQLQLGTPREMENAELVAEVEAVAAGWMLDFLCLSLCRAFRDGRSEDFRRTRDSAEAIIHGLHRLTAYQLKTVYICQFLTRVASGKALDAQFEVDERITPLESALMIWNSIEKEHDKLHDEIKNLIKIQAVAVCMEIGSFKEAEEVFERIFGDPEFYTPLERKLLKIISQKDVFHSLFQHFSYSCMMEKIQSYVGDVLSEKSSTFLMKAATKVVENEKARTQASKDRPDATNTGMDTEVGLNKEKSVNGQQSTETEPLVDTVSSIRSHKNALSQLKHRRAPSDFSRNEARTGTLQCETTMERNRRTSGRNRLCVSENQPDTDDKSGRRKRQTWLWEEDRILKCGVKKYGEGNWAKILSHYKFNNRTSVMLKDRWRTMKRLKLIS

Series [1] deals with T1, TRF (HTRF4.1, TRF1) partial ORF from N-terminal XhoI site to stop (Homo sapiens) (UniProt P54274).
T1 sequence (limits assumed): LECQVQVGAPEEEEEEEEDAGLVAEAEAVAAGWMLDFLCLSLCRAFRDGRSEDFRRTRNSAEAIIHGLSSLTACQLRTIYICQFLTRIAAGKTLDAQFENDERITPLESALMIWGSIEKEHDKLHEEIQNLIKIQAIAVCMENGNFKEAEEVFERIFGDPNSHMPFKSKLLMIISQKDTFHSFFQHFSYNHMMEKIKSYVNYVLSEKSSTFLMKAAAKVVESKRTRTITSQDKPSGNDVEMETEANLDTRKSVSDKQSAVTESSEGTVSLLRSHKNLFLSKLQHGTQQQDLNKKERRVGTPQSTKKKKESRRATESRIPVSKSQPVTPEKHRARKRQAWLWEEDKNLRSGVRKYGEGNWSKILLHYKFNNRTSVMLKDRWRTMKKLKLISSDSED
The series is described as follows: competition with a labelled probe. Conditions: plasmid competitor with long repeat array; protein translated in vitro; protein details: His6 (pET28b, Novagen) N-terminal fusion; only the site is given.

Series [2] addresses TRF (MTRF12, full length) (Mus musculus) (UniProt P70371). The series is described as follows: competition with a labelled probe. The settings on record: protein translated in vitro, only the site is given.

No signal at the amounts used counts as a negative. The exact form of at least one protein or probe is not confirmed. For some of these results: Protein sequences can lack the tags named with them.

With “TTAGGC (double strand) [TTAGGC repeat array plasmid competitor]”, the binding result in series [1] and in series [2] (plasmid competitor with long repeat array) was “no binding” in each case.

On to “TTGGGG (double strand) [TTGGGG repeat array plasmid competitor]”, for which the binding result was “no binding” in series [1] and “no binding” in series [2] (plasmid competitor, printed TYGGGG in Example 4).
